Data published in patent publication US12419304B2, “Aryl sulfide comprising benzylamine, synthesis method and application thereof” (Shandong Kangqiao Bio-Technology Co., Ltd., priority 2019, dated 2025).
Some results were stated once for a whole list of compounds, not compound by compound.

Tested on: Tetranychus cinnabarinus
Assay: Activity test of Tetranychus cinnabarinus (spray on inoculated bean seedlings, mortality after 72 hours)
Assay type: in vivo
Conditions: whole plant sprayed

| Structure (SMILES) | lethal rate against mites (100 ppm (100 mg/L)) | lethal rate against mites (25 ppm (25 mg/L)) |
| --- | --- | --- |
| CCC(=O)c1ccccc1CNc1cc(SCC(F)(F)F)c(C)cc1F [Compound 43] | over 90% |  |
| CCCOC(=O)c1cc(F)ccc1CNc1cc(SCC(F)(F)F)c(C)cc1F [Compound 307] | over 90% |  |
| Cc1cc(F)c(NCc2ccc(Cl)c(F)c2)cc1[S+]([O-])CC(F)(F)F (stereo not shown) [Compound 250] | over 90% |  |
| CCOC(=O)c1cc(F)ccc1CNc1cc(SCC(F)(F)F)c(C)cc1F [Compound 305] | over 90% | more than 90% |
| CC(=O)c1cc(Cl)ccc1CNc1cc(SCC(F)(F)F)c(C)cc1F [Compound 523] | over 90% |  |
| CCOC(=O)c1ccccc1CNc1cc(SCC(F)(F)F)c(C)cc1F [Compound 55] | over 90% | more than 90% |
| Cc1cc(F)c(NCc2ccc(F)cc2SCC(F)(F)F)cc1SCC(F)(F)F [Compound 1318] | over 90% | more than 90% |
| Cc1cc(F)c(NCc2ccc(F)cc2Cl)cc1SCC(F)(F)F [Compound 277] | over 90% |  |
| CCCSc1cc(NCc2ccc(Cl)cc2C(=O)OC)c(F)cc1C [Compound 1115] | over 90% |  |
| COC(=O)c1cc(C#N)ccc1CNc1cc(SCC(F)(F)F)c(Cl)cc1F [Compound 1177] | over 90% | more than 90% |
| CCCc1cc(F)ccc1CNc1cc([S+]([O-])CC(F)(F)F)c(C)cc1F (stereo not shown) [Compound 258] | over 90% |  |
| COC(=O)c1cc(Cl)ccc1CNc1cc(SCC(F)(F)F)c(Cl)cc1F [Compound 1167] | over 90% | more than 90% |
| Cc1cc(F)c(NCc2ccccc2SCC(F)F)cc1SCC(F)(F)F [Compound 1306] | over 90% |  |
| Cc1cc(F)c(NCc2ccccc2SCCF)cc1[S+]([O-])CC(F)(F)F (stereo not shown) [Compound 1305] | over 90% |  |
| CCCSc1cc(F)ccc1CNc1cc(SCC(F)(F)F)c(C)cc1F [Compound 369] | over 90% |  |
| Cc1cc(F)c(NCc2ccccc2C(=O)OCC(F)(F)F)cc1[S+]([O-])CC(F)(F)F (stereo not shown) [Compound 72] | over 90% |  |
| CC(=O)c1ccccc1CNc1cc(SCC(F)(F)F)c(C)cc1F [Compound 41] | over 90% |  |

| Structure (SMILES) | lethal rate against mites (100 ppm (100 mg/L)) | lethal rate against mites (25 ppm (25 mg/L)) |
| --- | --- | --- |
| CCOC(=O)c1ccccc1CNc1cc([S+]([O-])CC(F)(F)F)c(C)cc1C (stereo not shown) [Compound 170] | over 90% |  |
| CNC(=O)c1ccccc1CNc1cc(SCC(F)(F)F)c(Cl)cc1Cl [Compound 1071] | over 90% |  |
| CCCSc1cc(NCc2ccccc2C(=O)OCC)c(F)cc1C [Compound 819] | over 90% |  |
| Cc1cc(C)c([S+]([O-])CC(F)(F)F)cc1NCc1ccccc1Cl (stereo not shown) [Compound 142] | over 90% |  |
| CC(=O)c1ccccc1CNc1cc(SCC(F)(F)F)c(C)cc1C [Compound 155] | over 90% |  |
| CC(=O)c1cc(Cl)ccc1CNc1cc([S+]([O-])CC(F)(F)F)c(C)cc1F (stereo not shown) [Compound 524] | over 90% |  |
| CCSc1cc(F)ccc1CNc1cc(SCC(F)(F)F)c(C)cc1F [Compound 367] | over 90% | more than 90% |
| CCOc1ccccc1CNc1cc([S+]([O-])CC(F)(F)F)c(C)cc1F (stereo not shown) [Compound 98] | over 90% |  |
| CCCOc1ccccc1CNc1cc([S+]([O-])CC(F)(F)F)c(C)cc1F (stereo not shown) [Compound 100] | over 90% |  |
| COC(=O)c1cc(F)ccc1CNc1cc([S+]([O-])CC(F)(F)F)c(C)cc1C (stereo not shown) [Compound 424] | over 90% |  |
| CCSc1ccccc1CNc1cc(SCC(F)(F)F)c(C)cc1F [Compound 109] | over 90% | more than 90% |
| COC(=O)c1cc(Br)ccc1CNc1cc([S+]([O-])CC(F)(F)F)c(C)cc1F (stereo not shown) [Compound 1118] | over 90% |  |
| COC(=O)c1cc(Cl)ccc1CNc1cc([S+]([O-])CC(F)(F)F)c(C)cc1C (stereo not shown) [Compound 648] | over 90% |  |
| Fc1cc(Cl)c(SCC(F)(F)F)cc1NCc1ccccc1SCC(F)F [Compound 1270] | over 90% |  |
| CC(=O)c1ccccc1CNc1cc([S+]([O-])CC(F)(F)F)c(C)cc1F (stereo not shown) [Compound 42] | over 90% |  |
| CCOc1cc(F)ccc1CNc1cc(SCC(F)(F)F)c(C)cc1F [Compound 355] | over 90% |  |
